Experimental data taken from the supplement of paper PMC10849652.
The other results are listed elsewhere or left out.

Protein sequences, listed by entry. Tags and fused reporters are not part of them. Lines headed by an entry give the natural chain unless they say otherwise; changes in a name come on top.
UniProt Q13418: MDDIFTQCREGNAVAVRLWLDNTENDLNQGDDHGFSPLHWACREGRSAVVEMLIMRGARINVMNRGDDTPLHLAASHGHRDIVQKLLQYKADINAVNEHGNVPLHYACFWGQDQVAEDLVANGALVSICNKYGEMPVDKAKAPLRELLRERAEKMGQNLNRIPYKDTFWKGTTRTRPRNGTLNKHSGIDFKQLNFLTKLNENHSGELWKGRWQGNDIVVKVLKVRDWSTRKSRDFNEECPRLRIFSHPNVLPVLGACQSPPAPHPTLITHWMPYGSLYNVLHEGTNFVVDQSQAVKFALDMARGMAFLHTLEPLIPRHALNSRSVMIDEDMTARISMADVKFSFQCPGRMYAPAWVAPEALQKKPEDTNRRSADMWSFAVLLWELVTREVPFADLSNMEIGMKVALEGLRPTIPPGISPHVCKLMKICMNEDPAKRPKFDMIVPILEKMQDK
UniProt P17181: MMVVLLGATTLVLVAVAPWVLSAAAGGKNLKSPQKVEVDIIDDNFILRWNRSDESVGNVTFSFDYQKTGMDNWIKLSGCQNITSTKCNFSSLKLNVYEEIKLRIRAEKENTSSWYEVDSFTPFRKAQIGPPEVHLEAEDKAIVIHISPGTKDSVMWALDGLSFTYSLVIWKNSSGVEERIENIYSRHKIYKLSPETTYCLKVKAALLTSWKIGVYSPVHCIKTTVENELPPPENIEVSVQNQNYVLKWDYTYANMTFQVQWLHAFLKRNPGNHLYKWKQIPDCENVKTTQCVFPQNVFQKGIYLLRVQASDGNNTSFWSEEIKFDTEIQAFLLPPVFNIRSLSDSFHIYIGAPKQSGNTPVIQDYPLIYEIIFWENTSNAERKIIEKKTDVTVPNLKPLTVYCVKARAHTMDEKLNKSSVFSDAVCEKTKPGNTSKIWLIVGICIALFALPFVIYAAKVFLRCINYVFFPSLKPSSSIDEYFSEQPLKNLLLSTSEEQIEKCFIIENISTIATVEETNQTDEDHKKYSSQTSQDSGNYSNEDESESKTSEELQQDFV
UniProt Q9H2S9: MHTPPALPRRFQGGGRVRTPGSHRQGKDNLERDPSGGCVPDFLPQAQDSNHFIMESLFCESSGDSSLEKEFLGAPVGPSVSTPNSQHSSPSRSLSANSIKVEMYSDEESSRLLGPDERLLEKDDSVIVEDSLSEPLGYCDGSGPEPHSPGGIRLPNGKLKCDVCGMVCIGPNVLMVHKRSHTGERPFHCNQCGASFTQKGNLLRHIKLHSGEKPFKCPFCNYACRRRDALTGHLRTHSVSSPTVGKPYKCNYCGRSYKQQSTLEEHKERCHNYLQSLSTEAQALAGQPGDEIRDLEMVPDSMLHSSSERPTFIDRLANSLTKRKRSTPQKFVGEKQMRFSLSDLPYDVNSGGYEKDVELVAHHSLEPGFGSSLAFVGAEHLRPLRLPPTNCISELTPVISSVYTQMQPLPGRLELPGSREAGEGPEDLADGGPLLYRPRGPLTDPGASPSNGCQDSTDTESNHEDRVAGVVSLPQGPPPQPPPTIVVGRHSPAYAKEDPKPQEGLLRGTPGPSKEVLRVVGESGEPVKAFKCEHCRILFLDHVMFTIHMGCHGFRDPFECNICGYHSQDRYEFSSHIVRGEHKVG
UniProt Q70UQ0: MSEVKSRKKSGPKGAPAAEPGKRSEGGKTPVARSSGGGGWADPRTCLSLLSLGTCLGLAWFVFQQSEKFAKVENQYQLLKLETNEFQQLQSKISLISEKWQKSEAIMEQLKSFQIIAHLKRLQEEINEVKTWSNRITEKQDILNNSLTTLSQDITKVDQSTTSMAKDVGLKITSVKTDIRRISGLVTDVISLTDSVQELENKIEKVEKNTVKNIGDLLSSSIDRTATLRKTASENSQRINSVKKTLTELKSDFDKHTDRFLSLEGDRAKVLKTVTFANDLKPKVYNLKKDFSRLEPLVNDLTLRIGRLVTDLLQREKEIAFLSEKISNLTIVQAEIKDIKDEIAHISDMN
UniProt P32019: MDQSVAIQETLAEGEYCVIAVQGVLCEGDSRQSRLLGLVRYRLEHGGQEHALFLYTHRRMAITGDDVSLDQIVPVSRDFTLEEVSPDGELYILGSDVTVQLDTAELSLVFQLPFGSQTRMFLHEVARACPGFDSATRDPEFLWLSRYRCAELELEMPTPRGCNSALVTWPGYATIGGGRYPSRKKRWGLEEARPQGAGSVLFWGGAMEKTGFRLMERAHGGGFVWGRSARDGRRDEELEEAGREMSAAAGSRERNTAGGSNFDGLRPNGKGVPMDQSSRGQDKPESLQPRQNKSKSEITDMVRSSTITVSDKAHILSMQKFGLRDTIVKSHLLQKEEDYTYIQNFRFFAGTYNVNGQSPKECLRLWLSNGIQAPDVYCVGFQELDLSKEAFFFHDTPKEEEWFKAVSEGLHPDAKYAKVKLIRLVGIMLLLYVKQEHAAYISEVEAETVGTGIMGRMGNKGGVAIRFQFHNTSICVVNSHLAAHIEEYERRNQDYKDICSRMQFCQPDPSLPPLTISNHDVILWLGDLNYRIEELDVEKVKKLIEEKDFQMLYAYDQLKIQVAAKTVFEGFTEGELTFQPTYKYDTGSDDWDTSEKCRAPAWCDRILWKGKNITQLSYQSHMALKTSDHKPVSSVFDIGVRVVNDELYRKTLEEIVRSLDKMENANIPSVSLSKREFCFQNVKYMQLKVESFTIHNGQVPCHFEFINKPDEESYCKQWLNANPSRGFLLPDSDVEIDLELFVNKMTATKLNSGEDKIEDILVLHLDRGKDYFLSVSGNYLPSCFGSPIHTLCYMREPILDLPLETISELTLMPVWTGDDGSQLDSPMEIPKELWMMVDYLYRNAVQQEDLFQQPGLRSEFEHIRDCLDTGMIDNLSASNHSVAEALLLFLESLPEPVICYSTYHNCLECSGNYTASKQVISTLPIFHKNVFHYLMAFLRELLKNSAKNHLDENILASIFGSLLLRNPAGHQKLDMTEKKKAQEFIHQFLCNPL
UniProt Q13478: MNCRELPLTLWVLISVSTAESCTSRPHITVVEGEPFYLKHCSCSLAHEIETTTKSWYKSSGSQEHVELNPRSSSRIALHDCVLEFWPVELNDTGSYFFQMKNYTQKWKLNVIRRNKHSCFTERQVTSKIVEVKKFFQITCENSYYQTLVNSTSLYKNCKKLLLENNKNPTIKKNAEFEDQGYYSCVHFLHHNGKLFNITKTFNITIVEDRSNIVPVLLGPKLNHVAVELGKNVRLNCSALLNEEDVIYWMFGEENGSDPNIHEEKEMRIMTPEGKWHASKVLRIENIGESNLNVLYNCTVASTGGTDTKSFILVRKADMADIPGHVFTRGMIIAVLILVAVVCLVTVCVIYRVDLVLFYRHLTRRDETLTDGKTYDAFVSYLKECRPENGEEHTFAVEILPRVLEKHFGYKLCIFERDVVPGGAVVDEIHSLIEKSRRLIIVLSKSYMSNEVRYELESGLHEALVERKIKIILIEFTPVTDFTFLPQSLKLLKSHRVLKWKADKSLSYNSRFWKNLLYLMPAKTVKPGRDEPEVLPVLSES
UniProt Q96CN7: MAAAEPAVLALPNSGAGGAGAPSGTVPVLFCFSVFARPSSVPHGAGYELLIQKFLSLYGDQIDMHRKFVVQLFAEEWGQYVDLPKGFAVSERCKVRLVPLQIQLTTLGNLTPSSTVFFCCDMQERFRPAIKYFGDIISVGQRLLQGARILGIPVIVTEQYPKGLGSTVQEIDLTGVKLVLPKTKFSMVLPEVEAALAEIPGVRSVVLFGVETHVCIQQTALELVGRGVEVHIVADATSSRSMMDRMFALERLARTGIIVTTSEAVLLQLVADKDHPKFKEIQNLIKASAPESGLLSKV
UniProt A1L0T0: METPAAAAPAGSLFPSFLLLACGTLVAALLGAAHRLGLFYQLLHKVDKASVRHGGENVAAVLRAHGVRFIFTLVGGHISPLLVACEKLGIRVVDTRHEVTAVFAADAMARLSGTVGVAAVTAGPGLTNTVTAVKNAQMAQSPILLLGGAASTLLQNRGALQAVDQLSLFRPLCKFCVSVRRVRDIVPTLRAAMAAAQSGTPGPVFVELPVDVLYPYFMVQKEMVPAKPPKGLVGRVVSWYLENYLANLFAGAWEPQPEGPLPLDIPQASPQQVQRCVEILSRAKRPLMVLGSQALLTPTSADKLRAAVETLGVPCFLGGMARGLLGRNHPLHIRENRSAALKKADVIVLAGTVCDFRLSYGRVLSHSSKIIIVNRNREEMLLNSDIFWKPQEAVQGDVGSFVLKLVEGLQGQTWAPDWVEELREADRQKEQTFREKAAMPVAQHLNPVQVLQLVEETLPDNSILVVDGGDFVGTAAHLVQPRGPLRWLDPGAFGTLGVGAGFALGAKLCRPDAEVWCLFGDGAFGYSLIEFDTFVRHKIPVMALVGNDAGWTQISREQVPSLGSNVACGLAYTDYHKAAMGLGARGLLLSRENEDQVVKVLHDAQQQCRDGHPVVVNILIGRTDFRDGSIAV
UniProt P15260: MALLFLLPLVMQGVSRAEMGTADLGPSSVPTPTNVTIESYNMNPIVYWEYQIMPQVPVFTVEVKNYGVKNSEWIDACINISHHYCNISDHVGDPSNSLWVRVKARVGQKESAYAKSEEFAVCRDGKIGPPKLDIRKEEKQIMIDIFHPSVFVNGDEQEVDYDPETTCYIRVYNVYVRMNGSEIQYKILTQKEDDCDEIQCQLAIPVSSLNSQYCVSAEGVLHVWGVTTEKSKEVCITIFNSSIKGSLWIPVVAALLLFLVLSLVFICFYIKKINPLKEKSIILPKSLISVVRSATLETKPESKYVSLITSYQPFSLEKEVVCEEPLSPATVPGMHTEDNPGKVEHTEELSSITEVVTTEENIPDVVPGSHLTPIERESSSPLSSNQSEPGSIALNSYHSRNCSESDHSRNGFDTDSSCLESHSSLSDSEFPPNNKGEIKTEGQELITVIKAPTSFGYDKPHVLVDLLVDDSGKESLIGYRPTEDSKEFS
UniProt P23677, whole entry, looked up: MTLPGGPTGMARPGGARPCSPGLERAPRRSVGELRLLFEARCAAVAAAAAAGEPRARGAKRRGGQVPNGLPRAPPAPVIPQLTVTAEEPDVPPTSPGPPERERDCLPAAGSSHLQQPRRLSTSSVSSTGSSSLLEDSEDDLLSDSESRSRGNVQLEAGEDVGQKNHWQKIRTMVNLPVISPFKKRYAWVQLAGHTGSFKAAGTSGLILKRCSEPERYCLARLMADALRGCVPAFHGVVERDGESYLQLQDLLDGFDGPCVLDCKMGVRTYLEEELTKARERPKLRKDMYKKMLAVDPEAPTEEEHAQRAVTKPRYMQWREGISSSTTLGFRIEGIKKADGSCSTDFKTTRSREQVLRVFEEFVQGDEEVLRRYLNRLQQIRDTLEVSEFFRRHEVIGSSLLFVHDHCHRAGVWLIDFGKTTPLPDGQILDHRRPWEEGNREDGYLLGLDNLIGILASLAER
UniProt P18084: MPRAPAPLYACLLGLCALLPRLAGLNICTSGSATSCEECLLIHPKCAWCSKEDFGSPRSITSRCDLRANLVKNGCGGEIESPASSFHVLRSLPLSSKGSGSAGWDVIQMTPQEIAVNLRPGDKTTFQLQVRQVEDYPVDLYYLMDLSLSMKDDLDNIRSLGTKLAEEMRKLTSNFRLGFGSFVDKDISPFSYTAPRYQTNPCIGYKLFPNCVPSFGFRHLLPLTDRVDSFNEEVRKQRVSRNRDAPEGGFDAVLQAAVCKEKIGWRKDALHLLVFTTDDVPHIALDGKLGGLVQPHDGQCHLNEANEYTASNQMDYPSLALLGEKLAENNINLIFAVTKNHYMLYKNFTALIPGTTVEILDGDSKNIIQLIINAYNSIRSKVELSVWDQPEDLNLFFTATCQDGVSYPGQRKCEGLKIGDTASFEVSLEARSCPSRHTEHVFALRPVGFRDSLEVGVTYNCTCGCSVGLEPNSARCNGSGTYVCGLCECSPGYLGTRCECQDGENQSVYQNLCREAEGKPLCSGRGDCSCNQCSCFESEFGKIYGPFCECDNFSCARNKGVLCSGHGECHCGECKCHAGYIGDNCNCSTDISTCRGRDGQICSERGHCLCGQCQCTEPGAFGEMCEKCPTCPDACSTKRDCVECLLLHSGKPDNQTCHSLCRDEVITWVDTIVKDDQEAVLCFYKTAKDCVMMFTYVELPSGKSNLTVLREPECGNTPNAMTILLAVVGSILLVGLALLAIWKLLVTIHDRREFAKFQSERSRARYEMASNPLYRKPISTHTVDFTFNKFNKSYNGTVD
UniProt P51553: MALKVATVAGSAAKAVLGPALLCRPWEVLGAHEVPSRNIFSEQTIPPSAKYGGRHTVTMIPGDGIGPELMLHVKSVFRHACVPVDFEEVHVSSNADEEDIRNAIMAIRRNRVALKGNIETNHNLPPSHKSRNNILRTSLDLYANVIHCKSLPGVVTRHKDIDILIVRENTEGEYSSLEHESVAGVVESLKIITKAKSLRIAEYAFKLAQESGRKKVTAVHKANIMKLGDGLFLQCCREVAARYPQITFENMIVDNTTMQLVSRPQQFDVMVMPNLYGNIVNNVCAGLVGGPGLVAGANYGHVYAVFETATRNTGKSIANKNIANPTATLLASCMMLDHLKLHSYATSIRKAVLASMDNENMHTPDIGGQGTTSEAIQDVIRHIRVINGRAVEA

How the values were obtained:
Experiment in all cases: log2 fold change, soluble protein after heating vs DMSO (PISA); higher = thermal stabilisation; K562 cells, 10 uM, 30 min; active = over 0.2 and 3.5 SD of the protein, either way, in both replicates (recomputed)
bafetinib = compound: Cc1ccc(NC(=O)c2ccc(CN3CC[C@H](N(C)C)C3)c(C(F)(F)F)c2)cc1Nc1nccc(-c2cncnc2)n1 [bafetinib]
Outline: (§1)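 K562 cells (2×10^6 cells/mL) were treated with 10 μM compound for 30 min, and aliquots were heated for 3 min over 48°C-58°C. Pooled aliquots were extracted in PBS with 0.5% NP-40 at 4°C, and the supernatant after 21,000xg for 90 min was measured by TMTpro 16plex LC-MS/MS with channel sums equalised. Reported thermal stability, relative to control samples and from duplicates, is a log2 fold change.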

[1] = compound: Cc1cccc(CC(=O)N2CCc3c2ccc(-c2cn(C)c4ncnc(N)c24)c3F)n1
Outline: as §1

nilotinib = compound: Cc1cn(-c2cc(NC(=O)c3ccc(C)c(Nc4nccc(-c5cccnc5)n4)c3)cc(C(F)(F)F)c2)cn1 [nilotinib]
Outline: as §1

[2] = compound: Cc1nc(Nc2n[nH]c3c2CN(C(=O)N[C@H](CN(C)C)c2ccccc2)C3(C)C)c2sccc2n1
Outline: as §1

dasatinib = compound: Cc1nc(Nc2ncc(C(=O)Nc3c(C)cccc3Cl)s2)cc(N2CCN(CCO)CC2)n1 [dasatinib]
Outline: as §1

[3] = compound: Cc1ncc(-c2ccnc(Nc3ccc(S(C)(=O)=O)cc3)n2)n1C(C)C
Outline: as §1

[4] = compound: Cn1cc(-c2ccc3c(c2)CCN3C(=O)Cc2cccc(C(F)(F)F)c2)c2c(N)ncnc21
Outline: as §1

[5] = compound: Cn1cc(-c2ccc3nnc(C(F)(F)c4ccc5ncccc5c4)n3n2)cn1
Outline: as §1

tipifarnib = compound: Cn1cncc1[C@@](N)(c1ccc(Cl)cc1)c1ccc2c(c1)c(-c1cccc(Cl)c1)cc(=O)n2C [tipifarnib]
Outline: as §1

mubritinib = compound: FC(F)(F)c1ccc(/C=C/c2nc(COc3ccc(CCCCn4ccnn4)cc3)co2)cc1 [mubritinib]
Outline: as §1

[6] = compound: NC(=O)Nc1cc(-c2cccc(F)c2)sc1C(=O)N[C@H]1CCCNC1
Outline: as §1

[7] = compound: NC(=O)c1cnc(N[C@@H]2CCCC[C@@H]2N)nc1Nc1cccc(-n2nccn2)c1
Outline: as §1

[8] = compound: NC1(c2ccc(-c3nc4ccn5c(=O)[nH]nc5c4cc3-c3ccccc3)cc2)CCC1
Outline: as §1

[9] = compound: NCC(=O)Nc1ccc(-n2nc(C(F)(F)F)cc2-c2ccc3c(ccc4ccccc43)c2)cc1
Outline: as §1

entinostat = compound: Nc1ccccc1NC(=O)c1ccc(CNC(=O)OCc2cccnc2)cc1 [entinostat]
Outline: as §1

vorinostat = compound: O=C(CCCCCCC(=O)Nc1ccccc1)NO [vorinostat]
Outline: as §1

citarinostat = compound: O=C(CCCCCCNC(=O)c1cnc(N(c2ccccc2)c2ccccc2Cl)nc1)NO [citarinostat]
Outline: as §1

silmitasertib = compound: O=C(O)c1ccc2c(c1)nc(Nc1cccc(Cl)c1)c1ccncc12 [silmitasertib]
Outline: as §1

[10] = compound: O=C1NC(=O)C(c2cnc3ccccn23)=C1c1cn2c3c(cc(F)cc13)CN(C(=O)N1CCCCC1)CC2
Outline: as §1

[11] = compound: c1cc(OCCN2CCCCC2)cc(-c2n[nH]c3ccc(-c4nnc[nH]4)cc23)c1
Outline: as §1

Measured: log2 fold change

ILK (UniProt Q13418)
inactive: bafetinib -0.038 | [1] -0.012 | nilotinib 0.122 | [2] -0.024 | dasatinib -0.07 | [3] -0.002 | [4] 0.027 | [5] 0.005 | tipifarnib -0.023 | mubritinib 0.048 | [6] -0.236 | [7] -0.125 | [8] -0.07 | [9] -0.095 | entinostat -0.149 | vorinostat 0.083 | citarinostat -0.006 | silmitasertib -0.003 | [10] -0.036 | [11] -0.048

IFNAR1 (UniProt P17181)
inactive: bafetinib 0.074 | [1] -0.013 | nilotinib 0.038 | [2] -0.016 | dasatinib -0.278 | [3] 0.147 | [4] -0.056 | [5] 0.109 | tipifarnib 0.008 | mubritinib 0.011 | [6] -0.028 | [8] -0.014 | [9] 0.097 | entinostat -0.02 | vorinostat 0.026 | silmitasertib 0.103 | [10] -0.132

IKZF4 (UniProt Q9H2S9)
inactive: bafetinib -0.163 | [1] -0.01 | nilotinib 0.233 | [2] 0.069 | dasatinib 0.016 | [3] 0.152 | [4] 0.097 | [5] 0.16 | tipifarnib -0.002 | [6] -0.173 | [7] 0.067 | [9] -0.146 | entinostat 0.137 | vorinostat 0.06 | [10] -0.03

IKBIP isoform 4 (UniProt Q70UQ0)
inactive: bafetinib -0.051 | [1] -0.054 | nilotinib 0.007 | [2] 0.011 | dasatinib 0.063 | [3] -0.036 | [4] -0.014 | [5] 0.021 | tipifarnib 0.068 | mubritinib -0.066 | [6] -0.047 | [7] -0.032 | [8] -0.006 | [9] -0.015 | entinostat -0.023 | vorinostat -0.064 | citarinostat 0.003 | silmitasertib 0.047 | [10] -0.01 | [11] -0.081

INTS8 (UniProt Q75QN2)
inactive: bafetinib 0.274 | [1] 0.114 | nilotinib -0.075 | [2] -0.109 | dasatinib -0.155 | [3] 0.048 | [4] -0.022 | [5] 0.038 | tipifarnib -0.078 | [6] 0.116 | [7] -0.035 | [9] -0.081 | entinostat -0.146 | vorinostat 0.245 | citarinostat 0.015 | [11] -0.003

INTS13 (UniProt Q9NVM9)
inactive: bafetinib -0.034 | [1] 0 | nilotinib -0.062 | [2] -0.082 | dasatinib -0.178 | [3] -0.069 | [4] 0.072 | [5] 0.129 | tipifarnib -0.048 | mubritinib 0.094 | [6] -0.032 | [7] 0.012 | [8] -0.161 | [9] -0.015 | entinostat 0.047 | vorinostat 0.046 | citarinostat 0.081 | silmitasertib -0.024 | [10] -0.072 | [11] -0.028

IKBIP (UniProt Q70UQ0)
inactive: bafetinib -0.014 | [1] -0.008 | nilotinib -0.033 | [2] -0.062 | dasatinib 0.026 | [3] -0.107 | [4] 0.02 | [5] 0.024 | tipifarnib 0.059 | mubritinib -0.018 | [6] -0.002 | [7] -0.071 | [8] 0.007 | [9] 0.011 | entinostat -0.072 | vorinostat -0.029 | citarinostat -0.015 | silmitasertib 0.026 | [10] 0.042 | [11] -0.079

Reprinted at random: 2 entries already listed, in no set order.
INTS8 (UniProt Q75QN2)
inactive: bafetinib 0.274 | [1] 0.114 | nilotinib -0.075 | [2] -0.109 | dasatinib -0.155 | [3] 0.048 | [4] -0.022 | [5] 0.038 | tipifarnib -0.078 | [6] 0.116 | [7] -0.035 | [9] -0.081 | entinostat -0.146 | vorinostat 0.245 | citarinostat 0.015 | [11] -0.003

IKBIP isoform 4 (UniProt Q70UQ0)
inactive: bafetinib -0.051 | [1] -0.054 | nilotinib 0.007 | [2] 0.011 | dasatinib 0.063 | [3] -0.036 | [4] -0.014 | [5] 0.021 | tipifarnib 0.068 | mubritinib -0.066 | [6] -0.047 | [7] -0.032 | [8] -0.006 | [9] -0.015 | entinostat -0.023 | vorinostat -0.064 | citarinostat 0.003 | silmitasertib 0.047 | [10] -0.01 | [11] -0.081

More entries.

INPP5B (UniProt P32019)
inactive: bafetinib 0.103 | [1] -0.059 | nilotinib -0.077 | [2] 0.001 | dasatinib -0.111 | [3] 0.014 | [4] -0.005 | [5] -0.032 | tipifarnib 0.072 | mubritinib 0.018 | [6] 0.106 | [7] -0.066 | [8] -0.003 | [9] -0.108 | entinostat 0 | vorinostat 0.128 | citarinostat -0.016 | silmitasertib 0.167 | [10] 0.118 | [11] 0.014

IL18R1 (UniProt Q13478)
inactive: bafetinib -0.182 | [1] 0.053 | nilotinib -0.136 | [2] 0.057 | dasatinib 0.089 | [3] 0.071 | tipifarnib -0.04 | mubritinib 0.166 | [6] -0.401 | [8] -0.141 | entinostat -0.257 | vorinostat 0.032 | silmitasertib 0.035

ISOC1 (UniProt Q96CN7)
inactive: bafetinib -0.031 | [1] -0.065 | nilotinib -0.002 | [2] -0.009 | dasatinib 0.06 | [3] 0.017 | [4] 0.03 | [5] 0 | tipifarnib 0.01 | mubritinib 0.031 | [6] 0.028 | [7] -0.015 | [8] 0.019 | [9] -0.017 | entinostat -0.033 | vorinostat -0.031 | citarinostat -0.02 | silmitasertib -0.03 | [10] -0.044 | [11] 0.051

IMPDH2 (UniProt H0Y4R1)
inactive: bafetinib 0.222 | [1] 0.023 | nilotinib -0.147 | [2] 0.056 | [3] 0.008 | [5] 0.081 | tipifarnib 0.063 | mubritinib -0.084 | [7] 0.037 | [8] -0.03 | [9] 0.001 | vorinostat -0.078 | silmitasertib 0.008 | [10] 0

ILVBL (UniProt A1L0T0)
inactive: bafetinib 0.065 | [1] -0.049 | nilotinib 0.074 | [2] 0.011 | dasatinib -0.09 | [3] -0.025 | [4] 0.247 | [5] -0.005 | tipifarnib -0.047 | mubritinib 0.041 | [6] -0.053 | [7] -0.036 | [8] -0.022 | [9] -0.007 | entinostat -0.041 | vorinostat 0.002 | citarinostat 0.064 | silmitasertib -0.008 | [10] -0.009 | [11] -0.064

IFNGR1 (UniProt P15260)
inactive: bafetinib -0.262 | [1] -0.027 | nilotinib 0.075 | [2] -0.015 | dasatinib 0.154 | [3] -0.126 | [4] 0.123 | [5] -0.123 | tipifarnib 0.119 | mubritinib 0.299 | [6] -0.116 | [7] -0.068 | [8] 0.27 | [9] 0.051 | entinostat -0.123 | vorinostat 0.058 | citarinostat 0.014 | silmitasertib 0.055 | [10] -0.118 | [11] -0.086

ITPKA (UniProt P23677)
inactive: bafetinib 0.147 | [1] 0.17 | nilotinib -0.09 | [2] 0 | dasatinib -0.322 | [3] 0.286 | [5] -0.124 | tipifarnib 0.039 | mubritinib 0.034 | [6] -0.183 | [7] 0.025 | [8] -0.27 | [9] -0.057 | entinostat 0.097 | vorinostat -0.046 | citarinostat 0.175 | silmitasertib -0.649 | [10] 0.089 | [11] -0.032

ITGB5 (UniProt P18084)
inactive: bafetinib -0.057 | [1] -0.024 | nilotinib 0.002 | [2] 0.023 | dasatinib 0.092 | [3] -0.018 | [4] 0.007 | [5] 0.032 | tipifarnib 0.038 | mubritinib 0.102 | [6] -0.009 | [7] 0.04 | [8] -0.038 | [9] 0.092 | entinostat -0.001 | vorinostat -0.019 | citarinostat 0.02 | silmitasertib 0.005 | [10] 0.081 | [11] -0.072

IDH3G (UniProt P51553)
inactive: bafetinib -0.024 | [1] 0.015 | nilotinib 0.026 | [2] 0 | dasatinib -0.012 | [3] -0.015 | [4] 0.006 | [5] 0.042 | tipifarnib -0.003 | mubritinib 0.106 | [6] 0.023 | [7] -0.005 | [8] -0.021 | [9] 0.02 | entinostat -0.01 | vorinostat 0.024 | citarinostat 0.035 | silmitasertib -0.013 | [10] -0.018 | [11] 0.009

INTS9 (UniProt Q9NV88)
inactive: bafetinib -0.033 | [1] 0.028 | nilotinib -0.005 | [2] 0.002 | dasatinib -0.074 | [3] -0.03 | [4] 0.022 | [5] -0.005 | tipifarnib 0.033 | mubritinib 0.075 | [6] -0.002 | [7] -0.047 | [8] -0.003 | [9] -0.037 | entinostat 0.013 | vorinostat -0.033 | citarinostat 0.036 | silmitasertib -0.007 | [10] -0.091 | [11] -0.016
